This passage reports AC50 results from PubChem BioAssay AID445 (National Center for Advancing Translational Sciences (NCATS), 2006).

The other results are listed elsewhere or left out. These are further read-outs of the screen, such as a control signal, another cell line or another target. No call is given for them. Most of these compounds were active or inconclusive in the main read-out, so they are no random draw. The note in brackets gives the kind of curve behind each potency; many fits are weak.

This assay is described as follows: IkB Signaling. Conditions: ABC-DLBCL IkBa-CBG/CBR dual luciferase ratio (green luciferase fused to IkBa over red control in OCI-Ly3 lymphoma cells), 4 h; measured here: control luc red channel unless noted. The essentials:
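In this assay, an IκBα–CBG68 fusion accumulates when IKK-driven degradation is blocked; native CBR normalizes for cell number. OCI-Ly3 cells were treated 4 h with compound and doxycycline, then green and red light read after Chroma-Glo addition.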
As a reminder, the AC50 is the concentration giving half of the maximal activity seen. `Cc1ccc2[nH]c(=O)c(CN(CCCN3CCOCC3)C(=O)Nc3cccc(Cl)c3)cc2c1`: the AC50 was 25.1 µM [falling, partial curve]. The same measure for `CCCCOc1ccc(C(=O)Nc2cccc(C)n2)cc1`: 12.6 µM [falling, partial curve]; for `CCOC(=O)c1c(S(=O)(=O)N2CCCC(C(=O)N3CCN(c4cc(C)ccc4C)CC3)C2)c(C)n(C)c1C` (centres undefined): 25.1 µM [falling, partial curve]. Turning to `Cc1cc(C)cc(OCCSc2nc3ccc(NC(=O)COc4ccccc4)cc3s2)c1`, the AC50 was 3.98 µM [falling, partial curve]. With `CCCc1cc(C(=O)NCCc2ccccc2)no1` the figure was 5.01 µM [falling, partial curve]; with `Cc1ccc(OCC(=O)Nc2nonc2-c2ccc(Br)cc2)cc1C`, 0.126 µM [rising, full curve]; with `Cc1ccccc1Cn1c(SCc2ccc(C(=O)N3CCCCC3)cc2)nc2ccncc21`, 31.6 µM [falling, partial curve]. With `CCCOc1ccc(OC(=O)c2ccc(-c3ccc(CCC)cn3)cc2)cc1` the figure was 0.631 µM [falling, full curve]. With `CC1CCc2c(sc3nc(SCC(=O)NCc4ccco4)nc(N)c23)C1` (centres undefined) the figure was 7.94 µM [falling, partial curve]; with `COc1ccc(CCNC(=O)c2cc(Nc3ccccc3)nc3ccccc23)cc1OC`, 20 µM [falling, partial curve]; with `O=C(Nc1ccc(S(=O)(=O)N(Cc2ccccc2)c2ccccc2)cc1)c1ccccc1F`, 25.1 µM [falling, partial curve, poor fit]. In the case of `CCCn1ccc2c(OCC(=O)Nc3ccccc3C(=O)OCC)cccc2c1=O`, the AC50 is 2.51 µM [falling, partial curve]. For `O=C(Nc1ccccc1C(=O)NCc1ccccc1)c1ccco1`, the AC50 is 15.8 µM [falling, partial curve].

Turning to `COC(=O)c1ccccc1NC(=O)CCCn1c(C)c2cnn(-c3ccccc3)c(=O)c2c1C`, the AC50 is 12.6 µM [falling, partial curve]. With `Oc1ccccc1-c1nc2cnccn2c1Nc1ccc(Cl)cc1` the figure was 10 µM [falling, partial curve]; with `COc1ccc(CNC(=O)CN2C(=O)COc3ccccc32)c(OC)c1`, 6.31 µM [falling, partial curve]. With `Cc1ccc2nc(NC(=O)CSc3cc(C)[nH]c(=O)n3)sc2c1` the figure was 25.1 µM [falling, single point]; with `COc1ccc(-c2nn3c(-c4ccccc4)nnc3c3ccccc23)cc1`, 39.8 µM [falling, single point]. `Cc1ccc(C)c(-n2nnnc2SCC(=O)Nc2cccc(-c3nnc4n3CCCCC4)c2)c1`: the AC50 is 31.6 µM [falling, partial curve]. The same measure for `Cc1nn(Cc2ccc(Cl)c(Cl)c2)c(C)c1NC(=O)c1cc(-c2ccc3c(c2)OCO3)on1`: 1.58 µM [falling, full curve, poor fit]; for `Cc1cccc(N2CCN(C(=O)Cn3c(C)c4cnn(-c5ccccc5)c(=O)c4c3C)CC2)c1C`: 39.8 µM [falling, single point]; for `Cc1ccc(N2C(=O)[C@@H]3[C@H](C2=O)C2c4ccccc4C=CN2[C@@H]3C(=O)c2ccco2)c(C)c1` (some centres undefined): 3.16 µM [falling, full curve, poor fit]. With `CCOC(=O)C1CCCN(C(=O)Cn2ncc3c(C)n(Cc4ccc(Cl)cc4)c(C)c3c2=O)C1` (centres undefined) the figure was 15.8 µM [falling, partial curve]; with `Cc1ccc(NS(=O)(=O)c2ccc3c(c2)CCN3C(=O)C2CC2)c(C)c1`, 12.6 µM [falling, partial curve]; with `C=C(C)Cn1c(SCC(=O)c2ccc(Br)cc2)nc2sc3c(c2c1=O)CCCC3`, 7.94 µM [falling, full curve, poor fit]. For the compound `CC(=O)c1c(C(C)=O)c(C)n(NC(=O)c2cccnc2)c1C`, the AC50 was 12.6 µM [falling, partial curve]. On to `Cc1ccc(S(=O)(=O)c2nc(-c3cccs3)oc2SCc2ccc(F)cc2)cc1`, for which the concentration at half-maximal activity (AC50) was 5.01 µM [falling, single point].

Turning to `CC(C)c1ccccc1NC(=O)C(Cc1c[nH]c2ccccc12)NC(=O)OC(C)(C)C` (centres undefined), the AC50 is 20 µM [falling, single point].

Take `Cc1cccc(Nc2nnc(SCc3cn4ccsc4n3)s2)c1`: the AC50 was 39.8 µM [falling, single point].

As to `CCOC(=O)c1ccc(Nc2c(-c3ccc(OC)cc3)nc3nc[nH]n23)cc1`, the AC50 was 5.01 µM [falling, partial curve]. Take `CCOc1ccc(S(=O)(=O)Nc2ccc3c(c2)CCCN3C(=O)c2cccs2)cc1`: the AC50 is 15.8 µM [falling, partial curve, poor fit]. For `O=C(Cc1ccc(NC(=O)N2CCCCc3ccccc32)cc1)NCc1cccc(Br)c1`, the AC50 was 31.6 µM [falling, single point]. With `COc1ccc(C(=O)Nc2cccc(OC)c2)cc1` the figure was 10 µM [falling, partial curve].

For the compound `CC1=C(c2ccc(C)c(C)c2)S(=O)(=O)N=C1N1CCC(C(=O)NCc2ccc(N(C)C)cc2)CC1`, the concentration at half-maximal activity (AC50) is 1.58 µM [falling, partial curve].

Consider `COc1ccccc1NC(=O)N1CCN(c2nnc(C)c3c(C)n(-c4ccccc4)nc23)CC1`, for which the half-maximal activity concentration (AC50) was 0.1 µM [rising, full curve]. For the compound `Cc1noc(C)c1-c1ccc2ncnc(NCc3cccs3)c2c1`, the AC50 is 1 µM [rising, partial curve] [measured here: IkB-luc green channel]. Regarding `O=c1c2oc3ccccc3c2n(Cc2ccccc2F)c(=O)n1Cc1ccc2c(c1)OCO2`, the AC50 was 1 µM [falling, partial curve]. With `CCN(CC)S(=O)(=O)c1ccc(NC(=O)c2c(C)oc3ncnc(N4CCCCC4)c23)cc1` the figure was 0.0126 µM [falling, full curve, poor fit]; with `NC(=O)c1c(NC(NC(=O)c2ccco2)(C(F)(F)F)C(F)(F)F)sc2c1CCCC2`, 15.8 µM [falling, partial curve].
